{"source": "paper PMC3894558", "about": "“Chemical signatures and new drug targets for gametocytocidal drug development” (Scientific Reports, 2014)", "key": {"[1]": {"system": "P. falciparum 3D7 gametocyte lysates", "experiment": "affinity precipitation (pull-down) with mass spectrum analysis", "type": "binding, Plasmodium falciparum", "details": "Positive = Torin 2, Negative = Torin 1 affinity precipitation"}, "[2]": {"system": "P. falciparum 3D7 gametocyte lysates", "experiment": "drug affinity responsive target stability (DARTS)", "type": "binding, Plasmodium falciparum", "details": "600 nM; Positive = Torin 2 protected, Negative = Torin 1 protected"}}}
{"smiles": "CCC(=O)N1CCN(c2ccc(-n3c(=O)ccc4cnc5ccc(-c6cnc7ccccc7c6)cc5c43)cc2C(F)(F)F)CC1", "note": "[Torin 1, 1-[4-[4-(1-Oxopropyl)-1-piperazinyl]-3-(trifluoromethyl)phenyl]-9-(3-quinolinyl)-benzo[h]-1,6-naphthyridin-2(1H)-one]", "values": [{"measurement": "Pull-down, peptides of Aspartate carbamoyltransferase (PF3D7_1344800)", "setting": "[1]", "result": 0}, {"measurement": "Pull-down, peptides of Phosphoribosyl pyrophosphate synthetase (PF3D7_1325100)", "setting": "[1]", "result": 0}, {"measurement": "Pull-down, peptides of Transporter, putative (PF3D7_0914700)", "setting": "[1]", "result": 0}, {"measurement": "DARTS, peptides of Aspartate carbamoyltransferase (PF3D7_1344800)", "setting": "[2]", "result": 0}, {"measurement": "DARTS, peptides of Phosphoribosyl pyrophosphate synthetase (PF3D7_1325100)", "setting": "[2]", "result": 0}, {"measurement": "DARTS, peptides of Transporter, putative (PF3D7_0914700)", "setting": "[2]", "result": 0}]}
{"smiles": "Nc1ccc(-c2ccc3ncc4ccc(=O)n(-c5cccc(C(F)(F)F)c5)c4c3c2)cn1", "note": "[Torin 2, 9-(6-Amino-3-pyridinyl)-1-[3-(trifluoromethyl)phenyl]-benzo[h]-1,6-naphthyridin-2(1H)-one]", "values": [{"measurement": "Pull-down, peptides of Aspartate carbamoyltransferase (PF3D7_1344800)", "setting": "[1]", "result": 2}, {"measurement": "Pull-down, peptides of Phosphoribosyl pyrophosphate synthetase (PF3D7_1325100)", "setting": "[1]", "result": 4}, {"measurement": "Pull-down, peptides of Transporter, putative (PF3D7_0914700)", "setting": "[1]", "result": 3}, {"measurement": "DARTS, peptides of Aspartate carbamoyltransferase (PF3D7_1344800)", "setting": "[2]", "result": 4}, {"measurement": "DARTS, peptides of Phosphoribosyl pyrophosphate synthetase (PF3D7_1325100)", "setting": "[2]", "result": 6}, {"measurement": "DARTS, peptides of Transporter, putative (PF3D7_0914700)", "setting": "[2]", "result": 1}]}
